The results in this text go back to ChEMBL document CHEMBL4699667, “Discovery of the Potent, Selective, Orally Available CXCR7 Antagonist ACT-1004-1239” (J Med Chem, 2020).

Molecules are shown by their SMILES.

The series can be described thus: physchem. The settings on record: octanol/water, pH 7.4.

As for `O=C(NC1CCN(C2CCCCC2)CC1)c1nnc(-c2ccc(F)cc2F)o1`, the logD turned out to be 1.6.

In turn, `O=C(N[C@H]1CCN(C2CCCCC2)C[C@@H]1C(=O)NCCc1ccccn1)c1cc(-c2ccc(F)cc2F)on1` came in with a logD of 3.6.
